Some of these results come from one statement about several compounds together.
Target: T1, NS3/4A protease (Hepatitis C virus genotype 1a, UniProt P27958)
T1 construct: N-terminal His6-tagged-NS4A(21-32)-GSGS-NS3(3-181); made in house; host or cells: E. coli BL21(DE3) pLysS
Assay: Inhibition of NS3/4A protease activity (HPLC microbore assay)
Type: biochemical, HCV
Settings: 2 nM NS3/4A protease, 30 minutes at 30° C; call rule not given here.

Row | SMILES | inhibiting NS3/4A activity
1 | C=C[C@@H]1C[C@]1(NC(=O)[C@@H]1C[C@@H](Oc2nc(-c3ccc(C(C)(C)C)cc3)nc3c2oc2cccnc23)CN1C(=O)[C@@H](Nc1ccc(F)cc1)C(C)(C)C)C(=O)NS(=O)(=O)C1CC1 [Compound 96] | active
2 | C=C[C@@H]1C[C@]1(NC(=O)[C@@H]1C[C@@H](Oc2nc(-c3ccc(OC(F)(F)F)cc3)nc3c2oc2ccccc23)CN1C(=O)[C@@H](Nc1nc(C)c(C(=O)OC)s1)C(C)(C)C)C(=O)NS(=O)(=O)C1CC1 [Compound 177] | active
3 | C=C[C@@H]1C[C@]1(NC(=O)[C@@H]1C[C@@H](Oc2nc(-c3ccc(C(F)(F)F)cc3)nc3c2oc2ccccc23)CN1C(=O)[C@@H](Nc1nc(C(=O)NC)cs1)C(C)C)C(=O)NS(=O)(=O)C1CC1 [Compound 68] | active
4 | C=C[C@@H]1C[C@]1(NC(=O)[C@@H]1C[C@@H](Oc2nc(-c3ccc(OC(C)C)cc3)nc3c2sc2ccc(F)cc23)CN1C(=O)[C@@H](Nc1nc(C(=O)OC)cs1)C(C)(C)C)C(=O)NS(=O)(=O)C1CC1 [Compound 156] | active
5 | O=C(N[C@H]1CCCCC/C=C\[C@@H]2C[C@@]2(C(=O)NS(=O)(=O)C2CC2)NC(=O)[C@@H]2C[C@@H](Oc3cc(-c4cccc(C(F)(F)F)c4)nc4c5ccccc5nn34)CN2C1=O)OC1CCCC1 [Compound 238] | active
6 | C=C[C@@H]1C[C@]1(NC(=O)[C@@H]1C[C@@H](Oc2nc(-c3ccc(OC(C)C)cc3)nc3c2oc2ccccc23)CN1C(=O)[C@@H](Nc1ccc(Cl)cc1)C(C)(C)C)C(=O)NS(=O)(=O)C1CC1 [Compound 133] | active
7 | O=C(N[C@H]1CCCCC/C=C\[C@@H]2C[C@@]2(C(=O)NS(=O)(=O)C2CC2)NC(=O)[C@@H]2C[C@@H](Oc3cc(-c4ccco4)nc4c5ccccc5nn34)CN2C1=O)OC1CCCC1 [Compound 275] | active
8 | COc1cc(-c2cc(O[C@@H]3C[C@H]4C(=O)N[C@]5(C(=O)NS(=O)(=O)C6CC6)C[C@H]5/C=C\CCCCC[C@H](NC(=O)OC5CCCC5)C(=O)N4C3)n3nc4ccccc4c3n2)cc(OC)c1OC [Compound 247] | active
9 | O=C(N[C@H]1CCCCC/C=C\[C@@H]2C[C@@]2(C(=O)NS(=O)(=O)C2CC2)NC(=O)[C@@H]2C[C@@H](Oc3cc(-c4cccnc4)nc4c5ccccc5nn34)CN2C1=O)OC1CCCC1 [Compound 271] | active
10 | CC(C)Oc1ccc(-c2cc(O[C@@H]3C[C@H]4C(=O)N[C@]5(C(=O)NS(=O)(=O)C6CC6)C[C@H]5/C=C\CCCCC[C@H](NC(=O)OC5CCCC5)C(=O)N4C3)n3nc4cc(OC(C)C)ccc4c3n2)cc1 [Compound 269] | active
11 | C=C[C@@H]1CC1(NC(=O)[C@@H]1C[C@@H](Oc2nc(-c3ccc(C(F)(F)F)cc3)nc3c2oc2ccccc23)CN1C(=O)[C@@H](Nc1ccc(F)cc1)C(C)(C)C)C(=O)NS(=O)(=O)C1CC1 (stereo partly drawn) [Compound 50, (2S,4R)—N-((2S)-1-(cyclopropylsulfonylcarbamoyl)-2-vinylcyclopropyl)-1-((S)-2-(4-fluorophenylamino)-3,3-dimethylbutanoyl)-4-(2-(4-(trifluoromethyl)phenyl)-benzofuro[3,2-d]pyrimidin-4-yloxy)pyrrolidine-2-carboxamide] | active
12 | C=C[C@@H]1C[C@]1(NC(=O)[C@@H]1C[C@@H](Oc2nc(-c3ccc(OC(C)C)cc3)nc3c2oc2ccccc23)CN1C(=O)[C@@H](Nc1nc(C(=O)O)cs1)C(C)(C)C)C(=O)NS(=O)(=O)C1CC1 [Compound 104] | active
13 | C=C[C@@H]1C[C@]1(NC(=O)[C@@H]1C[C@@H](Oc2nc(-c3ccc(C(F)(F)F)cc3)nc3c2oc2ccccc23)CN1C(=O)[C@@H](Nc1nc(C(=O)N(C)C)cs1)C(C)(C)C)C(=O)NS(=O)(=O)C1CC1 [Compound 54] | active
14 | O=C1N[C@]2(C(=O)NS(=O)(=O)C3CC3)C[C@H]2/C=C\CCCCC[C@H](Nc2ccnc(Cl)n2)C(=O)N2C[C@H](Oc3nc(-c4ccc(C(F)(F)F)cc4)nc4c3oc3ccccc34)C[C@@H]12 [Compound 186] | active

Reference: patent US20110178107A1, “HCV PROTEASE INHIBITORS” (TaiGen Biotechnology Co., Ltd., priority 2010, published 2011)
